The supplement of paper PMC10849652
The list shows a part of the results.

The chains behind the UniProt entries cited, without tags or fusion partners. Where a name states a change or a piece, a line headed by the entry shows the natural chain unless it says otherwise.
UniProt Q5PSV4: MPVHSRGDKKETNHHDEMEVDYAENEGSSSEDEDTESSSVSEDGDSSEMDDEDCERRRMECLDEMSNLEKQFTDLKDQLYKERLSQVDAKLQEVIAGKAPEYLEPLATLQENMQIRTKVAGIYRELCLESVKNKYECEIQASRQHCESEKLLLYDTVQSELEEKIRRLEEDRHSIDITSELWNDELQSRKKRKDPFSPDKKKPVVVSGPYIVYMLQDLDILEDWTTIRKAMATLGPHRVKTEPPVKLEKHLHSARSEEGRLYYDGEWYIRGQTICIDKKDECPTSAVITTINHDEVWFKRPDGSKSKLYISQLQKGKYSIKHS
UniProt Q96IK1: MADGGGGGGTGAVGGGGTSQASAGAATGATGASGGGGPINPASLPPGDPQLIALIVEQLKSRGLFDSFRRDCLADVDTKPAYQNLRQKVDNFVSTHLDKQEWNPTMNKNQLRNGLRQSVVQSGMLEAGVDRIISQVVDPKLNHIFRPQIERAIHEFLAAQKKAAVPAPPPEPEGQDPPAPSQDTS
UniProt Q8TBE0: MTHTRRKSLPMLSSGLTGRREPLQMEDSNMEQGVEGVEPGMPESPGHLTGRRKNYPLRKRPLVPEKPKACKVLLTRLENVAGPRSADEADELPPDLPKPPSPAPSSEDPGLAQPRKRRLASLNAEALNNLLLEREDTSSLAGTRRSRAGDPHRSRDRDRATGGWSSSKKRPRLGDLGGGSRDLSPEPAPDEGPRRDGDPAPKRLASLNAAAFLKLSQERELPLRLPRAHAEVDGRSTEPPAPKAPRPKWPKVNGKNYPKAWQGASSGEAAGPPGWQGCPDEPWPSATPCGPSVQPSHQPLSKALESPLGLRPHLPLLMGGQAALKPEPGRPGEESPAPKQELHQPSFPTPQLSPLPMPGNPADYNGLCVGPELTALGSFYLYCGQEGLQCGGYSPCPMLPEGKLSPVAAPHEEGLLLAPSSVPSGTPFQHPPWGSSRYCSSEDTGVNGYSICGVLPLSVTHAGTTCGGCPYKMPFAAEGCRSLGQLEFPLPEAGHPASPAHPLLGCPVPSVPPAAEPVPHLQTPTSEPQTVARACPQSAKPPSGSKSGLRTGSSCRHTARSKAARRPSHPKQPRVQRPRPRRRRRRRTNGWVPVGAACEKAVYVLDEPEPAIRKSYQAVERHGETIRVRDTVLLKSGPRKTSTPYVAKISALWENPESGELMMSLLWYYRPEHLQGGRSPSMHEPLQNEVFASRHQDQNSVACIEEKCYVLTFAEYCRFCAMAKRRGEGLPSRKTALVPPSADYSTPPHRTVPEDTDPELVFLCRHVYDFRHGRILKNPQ
UniProt O75363: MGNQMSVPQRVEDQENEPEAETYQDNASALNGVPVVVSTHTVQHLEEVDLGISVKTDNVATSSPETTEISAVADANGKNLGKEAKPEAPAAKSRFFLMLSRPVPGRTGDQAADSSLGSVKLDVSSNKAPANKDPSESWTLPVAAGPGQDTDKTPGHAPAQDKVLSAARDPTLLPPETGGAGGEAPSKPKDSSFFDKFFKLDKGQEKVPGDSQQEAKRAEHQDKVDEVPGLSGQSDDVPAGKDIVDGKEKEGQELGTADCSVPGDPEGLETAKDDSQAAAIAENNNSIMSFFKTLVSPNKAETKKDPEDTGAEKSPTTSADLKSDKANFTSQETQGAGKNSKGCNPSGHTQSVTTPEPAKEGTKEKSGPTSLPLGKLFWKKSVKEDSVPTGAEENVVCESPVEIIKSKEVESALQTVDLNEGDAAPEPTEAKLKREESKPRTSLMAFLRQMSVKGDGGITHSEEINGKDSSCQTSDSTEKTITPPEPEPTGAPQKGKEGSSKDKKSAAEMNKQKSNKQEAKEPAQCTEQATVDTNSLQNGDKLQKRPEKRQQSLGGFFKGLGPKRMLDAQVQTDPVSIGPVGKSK
UniProt Q9HCU9: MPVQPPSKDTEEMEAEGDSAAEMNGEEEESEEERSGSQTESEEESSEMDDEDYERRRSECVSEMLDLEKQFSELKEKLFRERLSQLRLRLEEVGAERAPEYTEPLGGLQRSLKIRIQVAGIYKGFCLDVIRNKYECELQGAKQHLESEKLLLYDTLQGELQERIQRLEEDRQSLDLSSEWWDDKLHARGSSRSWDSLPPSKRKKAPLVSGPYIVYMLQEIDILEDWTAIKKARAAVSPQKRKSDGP
UniProt Q4VC05, whole entry, looked up: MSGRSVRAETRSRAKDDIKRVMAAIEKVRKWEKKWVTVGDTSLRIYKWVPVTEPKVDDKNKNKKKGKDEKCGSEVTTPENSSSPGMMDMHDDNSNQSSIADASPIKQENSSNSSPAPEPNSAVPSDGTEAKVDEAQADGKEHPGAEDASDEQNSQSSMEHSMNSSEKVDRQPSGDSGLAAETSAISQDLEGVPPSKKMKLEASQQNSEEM
UniProt Q96B45: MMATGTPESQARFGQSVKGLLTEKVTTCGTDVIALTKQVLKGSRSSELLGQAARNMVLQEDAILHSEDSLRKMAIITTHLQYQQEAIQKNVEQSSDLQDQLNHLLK
UniProt Q96G97: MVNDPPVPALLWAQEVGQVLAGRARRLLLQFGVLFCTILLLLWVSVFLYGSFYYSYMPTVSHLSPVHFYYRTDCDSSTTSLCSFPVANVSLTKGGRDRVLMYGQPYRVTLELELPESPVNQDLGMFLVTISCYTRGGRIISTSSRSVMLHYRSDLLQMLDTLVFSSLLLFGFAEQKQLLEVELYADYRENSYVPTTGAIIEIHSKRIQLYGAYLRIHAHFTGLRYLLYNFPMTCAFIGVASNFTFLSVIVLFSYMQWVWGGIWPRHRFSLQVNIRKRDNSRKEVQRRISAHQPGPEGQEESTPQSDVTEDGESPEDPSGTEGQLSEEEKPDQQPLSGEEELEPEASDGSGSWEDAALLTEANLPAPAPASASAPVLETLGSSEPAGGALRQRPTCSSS
UniProt O00499: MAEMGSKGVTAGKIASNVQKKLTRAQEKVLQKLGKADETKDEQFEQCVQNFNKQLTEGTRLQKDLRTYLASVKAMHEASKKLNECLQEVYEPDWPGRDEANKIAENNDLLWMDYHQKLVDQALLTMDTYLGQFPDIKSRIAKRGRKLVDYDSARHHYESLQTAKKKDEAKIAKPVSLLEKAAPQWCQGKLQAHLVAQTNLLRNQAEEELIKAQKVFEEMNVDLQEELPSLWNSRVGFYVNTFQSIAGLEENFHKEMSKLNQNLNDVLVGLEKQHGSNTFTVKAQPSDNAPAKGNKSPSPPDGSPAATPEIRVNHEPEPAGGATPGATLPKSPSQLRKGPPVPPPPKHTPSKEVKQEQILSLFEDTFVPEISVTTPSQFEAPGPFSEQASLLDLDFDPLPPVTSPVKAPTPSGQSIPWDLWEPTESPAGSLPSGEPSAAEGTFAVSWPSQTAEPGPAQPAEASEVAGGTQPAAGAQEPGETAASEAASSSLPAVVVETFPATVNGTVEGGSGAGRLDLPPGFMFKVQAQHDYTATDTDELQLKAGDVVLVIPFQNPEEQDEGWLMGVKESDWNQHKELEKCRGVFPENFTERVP
UniProt Q8N9N5: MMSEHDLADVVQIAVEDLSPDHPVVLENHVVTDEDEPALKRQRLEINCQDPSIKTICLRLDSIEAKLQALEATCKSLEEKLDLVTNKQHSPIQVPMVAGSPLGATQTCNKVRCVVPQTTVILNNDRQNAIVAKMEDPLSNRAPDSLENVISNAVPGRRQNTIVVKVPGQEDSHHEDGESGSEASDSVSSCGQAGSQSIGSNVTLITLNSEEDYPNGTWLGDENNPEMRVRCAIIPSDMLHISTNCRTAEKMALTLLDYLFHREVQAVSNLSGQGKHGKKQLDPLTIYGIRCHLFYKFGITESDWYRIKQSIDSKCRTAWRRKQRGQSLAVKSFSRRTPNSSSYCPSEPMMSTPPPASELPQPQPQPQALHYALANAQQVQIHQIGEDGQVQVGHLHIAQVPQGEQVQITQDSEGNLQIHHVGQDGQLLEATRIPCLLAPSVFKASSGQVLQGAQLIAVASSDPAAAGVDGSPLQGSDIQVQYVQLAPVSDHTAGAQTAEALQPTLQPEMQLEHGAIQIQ
UniProt Q9BSF8: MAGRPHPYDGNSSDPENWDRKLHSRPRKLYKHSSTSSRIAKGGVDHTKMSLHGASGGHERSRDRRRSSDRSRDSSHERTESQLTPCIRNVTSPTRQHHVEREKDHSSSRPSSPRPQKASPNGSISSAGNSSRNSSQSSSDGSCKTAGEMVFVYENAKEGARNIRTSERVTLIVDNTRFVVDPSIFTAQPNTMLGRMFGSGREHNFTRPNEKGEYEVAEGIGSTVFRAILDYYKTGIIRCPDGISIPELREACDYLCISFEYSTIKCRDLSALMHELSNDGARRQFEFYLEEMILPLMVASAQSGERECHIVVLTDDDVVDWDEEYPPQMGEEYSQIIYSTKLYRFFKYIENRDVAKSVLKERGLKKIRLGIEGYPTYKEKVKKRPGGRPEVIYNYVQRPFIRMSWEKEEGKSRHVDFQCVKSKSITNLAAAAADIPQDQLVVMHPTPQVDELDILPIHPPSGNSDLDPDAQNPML
UniProt Q96RK4: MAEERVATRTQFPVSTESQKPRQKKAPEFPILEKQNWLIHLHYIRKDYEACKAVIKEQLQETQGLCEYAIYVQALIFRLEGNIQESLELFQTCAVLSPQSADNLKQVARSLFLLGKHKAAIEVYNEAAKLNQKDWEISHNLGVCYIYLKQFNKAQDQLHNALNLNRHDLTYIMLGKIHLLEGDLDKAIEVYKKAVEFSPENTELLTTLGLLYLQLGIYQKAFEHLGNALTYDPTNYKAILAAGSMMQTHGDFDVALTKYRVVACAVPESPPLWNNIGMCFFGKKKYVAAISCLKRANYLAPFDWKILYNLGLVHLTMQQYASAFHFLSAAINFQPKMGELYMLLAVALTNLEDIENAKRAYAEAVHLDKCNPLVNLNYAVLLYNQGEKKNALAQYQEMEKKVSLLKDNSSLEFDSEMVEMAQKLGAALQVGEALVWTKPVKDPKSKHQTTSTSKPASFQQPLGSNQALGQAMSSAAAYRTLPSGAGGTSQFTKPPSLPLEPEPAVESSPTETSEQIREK
UniProt O60513: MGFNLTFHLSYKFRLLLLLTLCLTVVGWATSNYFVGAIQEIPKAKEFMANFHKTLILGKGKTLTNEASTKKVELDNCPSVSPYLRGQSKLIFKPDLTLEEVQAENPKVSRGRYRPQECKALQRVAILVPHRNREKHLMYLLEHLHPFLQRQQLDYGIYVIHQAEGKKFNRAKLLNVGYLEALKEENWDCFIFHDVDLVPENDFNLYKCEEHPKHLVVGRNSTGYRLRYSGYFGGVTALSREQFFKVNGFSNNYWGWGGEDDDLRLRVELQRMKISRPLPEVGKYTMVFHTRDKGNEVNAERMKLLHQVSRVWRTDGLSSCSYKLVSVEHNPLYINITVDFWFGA
UniProt Q9NP55: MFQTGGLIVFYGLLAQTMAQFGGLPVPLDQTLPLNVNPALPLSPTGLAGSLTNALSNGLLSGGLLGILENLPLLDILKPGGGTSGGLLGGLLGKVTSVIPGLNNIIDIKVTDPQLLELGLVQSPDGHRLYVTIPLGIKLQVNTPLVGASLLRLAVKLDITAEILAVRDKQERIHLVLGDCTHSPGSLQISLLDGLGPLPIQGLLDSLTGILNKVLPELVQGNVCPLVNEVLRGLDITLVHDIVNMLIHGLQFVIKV
UniProt O60238, whole entry, looked up: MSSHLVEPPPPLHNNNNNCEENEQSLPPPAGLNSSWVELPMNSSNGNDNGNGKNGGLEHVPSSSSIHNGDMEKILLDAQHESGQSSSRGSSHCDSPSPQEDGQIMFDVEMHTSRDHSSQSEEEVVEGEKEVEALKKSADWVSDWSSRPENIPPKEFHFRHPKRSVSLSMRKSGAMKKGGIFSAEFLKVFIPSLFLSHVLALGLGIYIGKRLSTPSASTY
UniProt P62324: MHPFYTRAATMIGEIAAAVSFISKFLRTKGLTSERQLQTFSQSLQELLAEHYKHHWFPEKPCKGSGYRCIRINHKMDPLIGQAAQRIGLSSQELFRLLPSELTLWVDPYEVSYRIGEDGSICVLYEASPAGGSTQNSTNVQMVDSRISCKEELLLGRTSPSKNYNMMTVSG
UniProt Q9H8M2, whole entry, looked up: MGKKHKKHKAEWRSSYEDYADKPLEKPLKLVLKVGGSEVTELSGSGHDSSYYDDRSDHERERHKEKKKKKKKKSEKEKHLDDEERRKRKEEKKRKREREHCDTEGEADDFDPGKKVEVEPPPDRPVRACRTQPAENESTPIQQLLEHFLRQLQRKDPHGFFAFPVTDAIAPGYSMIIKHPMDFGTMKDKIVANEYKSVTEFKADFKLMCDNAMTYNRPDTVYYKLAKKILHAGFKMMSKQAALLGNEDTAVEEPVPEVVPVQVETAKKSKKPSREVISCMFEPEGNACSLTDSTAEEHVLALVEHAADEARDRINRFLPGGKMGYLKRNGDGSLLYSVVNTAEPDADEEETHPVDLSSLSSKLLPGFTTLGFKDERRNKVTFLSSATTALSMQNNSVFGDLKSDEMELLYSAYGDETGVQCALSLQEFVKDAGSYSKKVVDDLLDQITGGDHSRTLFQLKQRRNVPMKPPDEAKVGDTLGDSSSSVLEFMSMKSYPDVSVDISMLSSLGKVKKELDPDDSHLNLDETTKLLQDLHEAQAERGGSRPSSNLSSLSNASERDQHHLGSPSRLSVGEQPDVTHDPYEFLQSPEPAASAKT

Assays:
Assay in all cases: log2 fold change, soluble protein after heating vs DMSO (PISA); higher = thermal stabilisation; K562 lysate, 10 uM; active = over 0.2 and 3.5 SD of the protein, either way, in both replicates (recomputed)
lapatinib = compound: CS(=O)(=O)CCNCc1ccc(-c2ccc3ncnc(Nc4ccc(OCc5cccc(F)c5)c(Cl)c4)c3c2)o1 [lapatinib]
In short: (§1)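 Pellets of K562 cells were dounce-homogenised in PBS pH 7.4 with 1 mM MgCl2, and the crude extract was held at 1 mg/mL protein for a 30 min treatment with 10 μM compound. Aliquots were heated for 3 min over 48°C-58°C and pooled before NP-40 was added to 0.5% at 4°C. The supernatant from 21,000xg for 90 min was quantified by TMTpro 16plex LC-MS/MS with channel sums equalised. Values are reported from duplicates as log-two fold change in thermal stability relative to solvent controls.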

[1] = compound: C[C@H](C1=CC=C(C=C1)C(=O)NC2=C3C=CNC3=NC=C2)N
In short: as §1

gandotinib = compound: Cc1cc(Nc2cc(CN3CCOCC3)c3nc(C)c(Cc4ccc(Cl)cc4F)n3n2)n[nH]1 [gandotinib]
In short: as §1

tozasertib = compound: Cc1cc(Nc2cc(N3CCN(C)CC3)nc(Sc3ccc(NC(=O)C4CC4)cc3)n2)n[nH]1 [tozasertib]
In short: as §1

[2] = compound: Cc1cccc(CC(=O)N2CCc3c2ccc(-c2cn(C)c4ncnc(N)c24)c3F)n1
In short: as §1

nilotinib = compound: Cc1cn(-c2cc(NC(=O)c3ccc(C)c(Nc4nccc(-c5cccnc5)n4)c3)cc(C(F)(F)F)c2)cn1 [nilotinib]
In short: as §1

[3] = compound: Cc1nc(Nc2n[nH]c3c2CN(C(=O)N[C@H](CN(C)C)c2ccccc2)C3(C)C)c2sccc2n1
In short: as §1

[4] = compound: Cc1ncc(-c2ccnc(Nc3ccc(S(C)(=O)=O)cc3)n2)n1C(C)C
In short: as §1

tipifarnib = compound: Cn1cncc1[C@@](N)(c1ccc(Cl)cc1)c1ccc2c(c1)c(-c1cccc(Cl)c1)cc(=O)n2C [tipifarnib]
In short: as §1

[5] = compound: NC(=O)c1cnc(N[C@@H]2CCCC[C@@H]2N)nc1Nc1cccc(-n2nccn2)c1
In short: as §1

[6] = compound: NC1(c2ccc(-c3nc4ccn5c(=O)[nH]nc5c4cc3-c3ccccc3)cc2)CCC1
In short: as §1

crizotinib = compound: C[C@@H](Oc1cc(-c2cnn(C3CCNCC3)c2)cnc1N)c1c(Cl)ccc(F)c1Cl [crizotinib]
In short: as §1

duvelisib = compound: C[C@H](Nc1ncnc2nc[nH]c12)c1cc2cccc(Cl)c2c(=O)n1-c1ccccc1 [duvelisib]
In short: as §1

doramapimod = compound: Cc1ccc(-n2nc(C(C)(C)C)cc2NC(=O)Nc2ccc(OCCN3CCOCC3)c3ccccc23)cc1 [doramapimod]
In short: as §1

dasatinib = compound: Cc1nc(Nc2ncc(C(=O)Nc3c(C)cccc3Cl)s2)cc(N2CCN(CCO)CC2)n1 [dasatinib]
In short: as §1

[7] = compound: Cn1cc(-c2ccc3c(c2)CCN3C(=O)Cc2cccc(C(F)(F)F)c2)c2c(N)ncnc21
In short: as §1

quisinostat = compound: Cn1cc(CNCC2CCN(c3ncc(C(=O)NO)cn3)CC2)c2ccccc21 [quisinostat]
In short: as §1

[8] = compound: NC(=O)Nc1cc(-c2cccc(F)c2)sc1C(=O)N[C@H]1CCCNC1
In short: as §1

pictilisib = compound: CS(=O)(=O)N1CCN(Cc2cc3nc(-c4cccc5[nH]ncc45)nc(N4CCOCC4)c3s2)CC1 [pictilisib]
In short: as §1

bafetinib = compound: Cc1ccc(NC(=O)c2ccc(CN3CC[C@H](N(C)C)C3)c(C(F)(F)F)c2)cc1Nc1nccc(-c2cncnc2)n1 [bafetinib]
In short: as §1

Measured: log2 fold change

BAP18 isoform 3 (UniProt Q8IXM2)
inactive: lapatinib 0.056 | [1] -0.001 | gandotinib -0.059 | tozasertib -0.047 | [2] -0.059 | nilotinib 0.057 | [3] -0.017 | [4] -0.005 | tipifarnib 0.262 | [5] 0.069 | [6] 0.03

BRMS1L (UniProt Q5PSV4)
inactive: lapatinib 0.017 | tozasertib 0.068 | [5] 0.025

BOD1 (UniProt Q96IK1)
inactive: lapatinib -0.081 | crizotinib -0.045 | [1] 0.073 | duvelisib 0.396 | gandotinib -0.125 | doramapimod 0.014 | [2] 0.06 | dasatinib 0.326 | [7] 0.197 | quisinostat 0.097 | [8] -0.106 | [5] 0.156

BEND3 (UniProt Q5T5X7)
inactive: lapatinib -0.032 | crizotinib -0.083 | [1] -0.07 | duvelisib 0.042 | gandotinib -0.002 | tozasertib -0.114 | doramapimod 0.182 | [2] 0.085 | dasatinib -0.027 | [7] 0.056 | quisinostat -0.233 | [8] 0.159 | [5] 0.056 | [6] 0.014

BAHD1 (UniProt Q8TBE0)
inactive: pictilisib 0.084 | crizotinib 0.026 | [1] -0.004 | duvelisib 0.16 | gandotinib 0.023 | doramapimod 0.054 | bafetinib -0.02 | [2] 0.014 | dasatinib 0.056 | [7] 0.036 | quisinostat 0.105 | [8] -0.033

BCAS1 isoform 2 (UniProt O75363)
inactive: lapatinib 0.051 | pictilisib 0.004 | crizotinib -0.041 | [1] 0.064 | gandotinib 0.067 | tozasertib 0.06 | doramapimod 0.028 | bafetinib -0.029 | [2] -0.03 | nilotinib 0.01 | [3] -0.04 | [4] 0.007 | quisinostat 0.051 | tipifarnib -0.109 | [8] -0.03 | [5] 0.189

BRMS1 (UniProt Q9HCU9)
inactive: lapatinib -0.024 | crizotinib 0.07 | duvelisib 0.042 | tozasertib -0.042 | doramapimod 0.513 | nilotinib -0.042 | [3] 0.13 | dasatinib 0.022 | [4] -0.037 | [7] -0.005 | quisinostat 0.099 | tipifarnib 0.008 | [8] 0.106 | [5] 0.002 | [6] -0.041

BRCA2 (UniProt P51587)
inactive: pictilisib 0.064 | crizotinib 0 | [1] -0.191 | duvelisib 0.11 | gandotinib 0.078 | tozasertib 0.05 | doramapimod -0.034 | bafetinib 0.035 | [2] 0.201 | nilotinib -0.278 | [3] -0.229 | dasatinib -0.056 | [4] 0.253 | [7] -0.038 | quisinostat -0.004 | tipifarnib -0.12 | [8] 0.058 | [6] 0.144

BTBD9 (UniProt Q96Q07)
inactive: lapatinib 0.107 | [5] -0.33 | [6] -0.298

BCL7A (UniProt Q4VC05)
inactive: lapatinib -0.083 | pictilisib -0.024 | crizotinib 0.09 | [1] -0.198 | duvelisib 0.016 | gandotinib 0.067 | doramapimod -0.025 | bafetinib -0.01 | [2] -0.059 | dasatinib 0.064 | [7] -0.014 | quisinostat -0.093 | [8] 0.053 | [5] -0.196

2 entries picked at random from the list so far:
BCAS1 isoform 2 (UniProt O75363)
inactive: lapatinib 0.051 | pictilisib 0.004 | crizotinib -0.041 | [1] 0.064 | gandotinib 0.067 | tozasertib 0.06 | doramapimod 0.028 | bafetinib -0.029 | [2] -0.03 | nilotinib 0.01 | [3] -0.04 | [4] 0.007 | quisinostat 0.051 | tipifarnib -0.109 | [8] -0.03 | [5] 0.189

BRCA2 (UniProt P51587)
inactive: pictilisib 0.064 | crizotinib 0 | [1] -0.191 | duvelisib 0.11 | gandotinib 0.078 | tozasertib 0.05 | doramapimod -0.034 | bafetinib 0.035 | [2] 0.201 | nilotinib -0.278 | [3] -0.229 | dasatinib -0.056 | [4] 0.253 | [7] -0.038 | quisinostat -0.004 | tipifarnib -0.12 | [8] 0.058 | [6] 0.144

Next part.

BIRC6, A0A3B3IUB9
inactive: lapatinib 0.149 | crizotinib -0.007 | [1] 0.036 | duvelisib -0.224 | gandotinib -0.077 | tozasertib -0.163 | doramapimod 0.102 | [2] -0.058 | dasatinib 0.046 | [7] 0.11 | quisinostat 0.167 | [8] -0.168 | [5] -0.019 | [6] -0.143

BORCS7 (UniProt Q96B45)
inactive: lapatinib -0.008 | pictilisib 0.072 | crizotinib -0.038 | [1] 0.159 | gandotinib 0.142 | doramapimod -0.064 | bafetinib 0.015 | [2] -0.08 | nilotinib -0.01 | [3] 0.146 | [4] 0.284 | quisinostat -0.038 | tipifarnib 0.002 | [8] -0.012 | [5] -0.093 | [6] -0.072

BSCL2 isoform 4 (UniProt Q96G97)
inactive: lapatinib -0.19 | crizotinib -0.018 | [1] -0.052 | gandotinib 0.005 | doramapimod -0.022 | [2] 0.274 | nilotinib -0.119 | [3] 0.299 | [4] 0.036 | quisinostat -0.155 | tipifarnib -0.26 | [8] -0.018 | [5] -0.137 | [6] -0.157

BIN1 (UniProt O00499)
inactive: lapatinib -0.106 | [1] -0.093 | gandotinib 0.122 | tozasertib -0.137 | [2] 0.092 | nilotinib 0.177 | [3] 0.105 | [4] -0.099 | tipifarnib 0.131 | [5] -0.021 | [6] -0.169

BPTF (UniProt F5GXF5)
inactive: [6] -0.003

BANP isoform 7 (UniProt Q8N9N5)
inactive: tozasertib -0.035 | [6] 0.06

BTBD10 isoform 2 (UniProt Q9BSF8)
inactive: pictilisib -0.079 | crizotinib -0.027 | duvelisib 0.133 | doramapimod 0.02 | bafetinib -0.021 | nilotinib -0.093 | [3] -0.109 | dasatinib -0.016 | [4] -0.012 | [7] -0.012 | quisinostat -0.105 | tipifarnib 0.072 | [8] 0.035

BRWD1 (UniProt Q9NSI6)
inactive: crizotinib -0.013 | duvelisib 0.033 | doramapimod 0.07 | dasatinib -0.195 | [7] 0.235 | quisinostat -0.094 | [8] 0.052

BBS4 isoform 2 (UniProt Q96RK4)
inactive: [1] -0.228 | duvelisib 0.048 | gandotinib -0.046 | [2] 0.245 | nilotinib -0.086 | [3] -0.026 | dasatinib 0.026 | [4] -0.177 | [7] -0.112 | tipifarnib -0.22

BRF2 (UniProt Q9HAW0)
inactive: tozasertib 0.07

BDP1 (UniProt A6H8Y1)
inactive: crizotinib 0.036 | tozasertib 0.009 | doramapimod 0.013 | quisinostat 0.034 | [8] 0.074

B4GALT4 (UniProt O60513)
inactive: [1] -0.075 | duvelisib -0.148 | gandotinib 0.038 | [2] 0.12 | dasatinib -0.098 | [7] -0.015 | [6] -0.117

BPIFA1 (UniProt Q9NP55)
inactive: [1] 0.167 | duvelisib -0.06 | gandotinib 0.011 | tozasertib 0.284 | [2] 1.2 | nilotinib 0.01 | [3] -0.06 | dasatinib -0.269 | [4] -0.013 | [7] 1.39 | tipifarnib -0.155 | [6] 1.11

BNIP3L (UniProt O60238)
inactive: crizotinib -0.123 | tozasertib -0.053 | doramapimod 0.109 | quisinostat -0.193 | [8] -0.109

BTG1 (UniProt P62324)
inactive: crizotinib 0.067 | doramapimod -0.011 | quisinostat -0.008 | [8] -0.012

BRD9 (UniProt Q9H8M2)
inactive: [1] 0.119 | gandotinib -0.099 | tozasertib -0.144 | [2] -0.032 | nilotinib 0.201 | [3] -0.028 | [4] -0.22 | tipifarnib -0.166 | [6] 0.074

BTBD2 (UniProt Q9BX70)
inactive: crizotinib -0.031 | [1] -0.23 | gandotinib 0.07 | tozasertib 0.009 | doramapimod -0.051 | [2] 0.286 | quisinostat 0.054 | [8] -0.019 | [6] -0.117

B4GAT1 (UniProt O43505)
inactive: pictilisib 0.018 | crizotinib -0.041 | duvelisib 0.171 | doramapimod 0.009 | bafetinib -0.09 | nilotinib 0.004 | [3] -0.177 | dasatinib 0.062 | [4] -0.251 | [7] -0.035 | quisinostat 0.013 | tipifarnib -0.127 | [8] -0.014 | [6] -0.006
